The values below come from paper PMC2910475.

Results are given in words; binding and its absence hold for the method and conditions named. Tags and fused reporters may be left off the sequences shown.

The assay concerns the target Rio1p Ser/Thr kinase homolog (HVO_0135) with C-terminal StrepII tag (Haloferax volcanii) (UniProt D4GYY1). Briefly: SEC; StrepTactin-purified Rio1p on a calibrated Superose 200 HR 10/30 column; 20 mM Tris pH 7.2, 2 M NaCl; both purified.

B1: Rio1p Ser/Thr kinase homolog (HVO_0135) with C-terminal StrepII tag (enzyme, UniProt D4GYY1 1-290)
chain: MTDEFGMVEPQEGEAFGDEWEEIDVSDDEADRIARRKDRDFDEFRMRLKDADQFKVEQSVFDDATFAAIYKLVQDGHIDAFGGPISTGKEANVFEALGGDDADVAVKIYRINASDFRHMRDYLEGDPRFENIGHDKGQVVRAWVRKEFANLERAQRAGVRVPKPIAVQRNVLVMELVGVVDDRARRLSEVRVENPQTAYEVVREYMRRLHRAGLVHGDLSEYNLIIHDGELVVIDLGQAVTVHHPNAEEFLRRDCRNVANFFRRQGADADGDSLYEFVTGDEGEDGDGDE
B1: the binding entry is given as “no binding”.
